Assay results: US9969723B2, “3-(4-(benzyloxy)phenyl)hex-4-ynoic acid derivative, method of preparing same and pharmaceutical composition for preventing and treating metabolic disease including same as effective ingredient” (HYUNDAI PHARM CO., LTD, priority 2014, dated 2018)
At least one structure is not confirmed: it was looked up by name or label, or the drawing left a doubt.

What was measured:
[1] = tested on: Male OLETF (Otsuka Long-Evans Tokushima fatty) rats, the type II diabetes animal model (obesity); assay: Oral glucose tolerance test (OGTT) 3; format: in vivo, rat; conditions: oral dose 1 mg/kg
Experimental: Male OLETF (Otsuka Long-Evans Tokushima fatty) rats at 29˜30 weeks, the type II diabetes animal model (obesity), were adapted at least for 7 days. Only healthy animals were selected thereafter, followed by OGTT. After fasting for 16˜18 hours, 5 rats per group were randomly selected and orally administered with the compounds prepared in Examples 5, 9, 14, 28, 37, and 47 at the dose of 1˜10 mg/kg. At this time, 5% polyethyleneglycol (PEG) was orally administered at the same dose to the non-treated group rats. 60 minutes after the sample administration, glucose (4 g/kg) was orally administered thereto at the dose of 5 ml/kg. Then, blood glucose was measured by using Accu-chek active strip (Roche diagnostic Co.). The time for the measurement was set at 60 minutes before the glucose administration (−60), 0 minute, 20 minutes, 40 minutes, 60 minutes, and 120 minutes after the glucose administration, and blood glucose was measured through tail vein puncture.

[2] = tested on: Male Sprague Dawley rats, the diet-induced obesity model; assay: Measurement of blood GLP-1 after the oral administration; format: in vivo, rat; conditions: SD rats, glucose 2 g/kg 60 minutes later, blood 20 minutes later

In the case of `CC#C[C@@H](CC(=O)O)c1ccc(OCc2cccc(C3=CCC4(CC3)OCCO4)c2)cc1` [Example 9, L-lysine (3S)-3-(4-(3-(1,4-dioxaspiro[4,5]dec-7-en-8-yl)benzyloxy)phenyl)hex-4-ynoate], the “hypoglycemic effect compared to Comparative Example 1 at 10 mg/kg” value [1] is reported as “higher hypoglycemic effect” and the “blood GLP-1 content compared with the group treated with glucose (Veh.)” value [2] is reported as “increase blood GLP-1”.
